Results reported in patent publication US20260217763A1, “Novel Peptide and Use Thereof” (Zincure Corp., priority 2022, published 2026).
Not every detail of the peptide structures is certain; ends, links or a residue may be inferred. Square brackets hold non-standard residues; d marks the D form. Ends that are not written are not given here. Peptide text beside a SMILES is read from it.

Columns and labels:
[1] = system: β-amyloid plaques; test: β-amyloid aggregate plaques in brain sections (thioflavin S and Congo red staining); type: in vivo, mice; conditions: 5×FAD, cortical and hippocampal slices, 20 mg/kg IP, 25 weeks
[2] = system: P-Tau S214, P-Tau T205, unphosphorylated tau, p62, LC3, β-amyloid (APP); test: Western blot of aggregate-forming proteins in cortex and hippocampus; type: in vivo; conditions: 5×FAD mice
From the text: The present inventors conducted a western blot analysis to investigate the expression of pathogenic aggregate-forming proteins in brain tissue, such as tau protein, p62, and LC3, other than β-amyloid from the results of Experimental examples 8-2 and 8-3 above.
Specifically, cortical and hippocampal tissues were obtained from experimental animals sacrificed after the behavioral experiments, and the tissues were lysed and subjected to Western blot analysis using antibodies that specifically bind to phosphorylated tau S214 (P-Tau S214), phosphorylated tau T205 (P-Tau T205), unphosphorylated tau, p62, LC3, and β-amyloid (APP), respectively.

[3] = Biological activity as summarised in the description (test not specified); conditions: general statement of the description, test not named

Molecule	accumulation of β-amyloid aggregates (plaques) [1]	amount of β-amyloid ([2]; Western blot of hippocampal sections)	expression of aggregate-forming proteins ([2]; cortex and hippocampus, 20 mg/kg IP, 25 weeks)	biological activity [3]
CC(C)[C@@H](NC(=O)CNC(=O)[C@H](N)Cc1c[nH]cn1)C(=O)N[C@H](CO)C(=O)NCC(=O)N[C@H](Cc1c[nH]cn1)C(=O)NCC(=O)N[C@H](CCC(N)=O)C(=O)N[C@H](Cc1c[nH]cn1)C(=O)NCC(=O)N[C@@H](C(=O)N[C@H](Cc1c[nH]cn1)C(=O)NCC(=O)O)C(C)C [DAL1] (H-[dH]G[dV][dS]G[dH]G[dQ][dH]G[dV][dH]G-OH; N-terminus and C-terminus assumed)	neither the control DAL1 nor the variant alloferon peptides according to one embodiment of the present invention significantly inhibited	did not show significance in reducing	significantly lower expression	the same biological activity as the L-type alloferon
HGVSGHGQHGVHG [LAL]				excellent activity
